# Laboratory results published in PubChem BioAssay AID1347076 (National Center for Advancing Translational Sciences (NCATS), 2019).
# Hit rate of the full screen: of about 400,000 compounds, about 13,000 (3.2%) were called active. Inconclusive means that the source gave no clear call. Such entries were picked first, then a sample of the others. Calls follow the shape of the dose curve; as a rule, active = well fitted cell-killing curve with a large enough effect; inconclusive = small, poorly fitted or top-dose-only effect, or effect the other way; inactive = flat fitted curve, though single readings scatter. Potencies beside an inconclusive call are fits to weak or partial responses and may not hold up.
# Assay: qHTS assay for MDR1-selective chemotherapeutics: Primary screen using the drug-selected MDR subline cells KB-V1; also: nearly all actives have a fitted effect of over 60% in size
# Details: KB-V1 MDR cells viability, CellTiter-Glo, 72 h; series mostly up to 46.1 µM
# In short: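 Luminescent ATP read-out (CellTiter-Glo, 10 min) measures survival of drug-selected KB-V1 MDR cells after 72 h, 37 degrees C compound exposure. Medium: phenol-red-free DMEM, 10% FBS. Values from fitted concentration-response curves.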
# Potency is read from the fitted curve at half-maximal effect.
row,Structure (SMILES),Potency
1,CCOC(=O)c1c(C)[nH]c(C)c1C(=O)COC(=O)c1ccc(Cl)c(S(N)(=O)=O)c1,inactive
2,N#CC1(Nc2ccccc2)C(=O)Nc2ccccc21 (stereo not given),"inconclusive: 29.1 µM [rising, partial curve, poor fit]"
3,CCCCc1ccc(NC(=S)NCc2cccnc2)cc1,active: 14.6 µM
4,CC1(C)OC(=O)C2=C(C[C@@H](C3CCCC3)O[C@H]2CCc2cccc(Cl)c2)O1,"inconclusive: 0.0116 µM [rising, full curve, poor fit]"
5,COc1cc(CC(=O)OCC(=O)N2CCCCC2C)cc(OC)c1OC (stereo not given),"inconclusive: 23.1 µM [cytotoxic, single point]"
6,COc1ccc(NC(=O)c2nn(C)c3c2CSc2ccc(C)cc2-3)cc1OC,"inconclusive: 29.1 µM [cytotoxic, single point]"
7,O=c1cc[nH]c2c(C(F)(F)F)cccc12,inactive
8,O=C(Nc1cccnc1Cl)c1cc2ccccc2o1,inactive
9,CCOc1ccc(NC(=O)CC(NC(C)=O)c2ccccc2)cc1S(=O)(=O)N1CCCC1 (stereo not given),"inconclusive: 25.9 µM [rising, partial curve, poor fit]"
10,CCOC1=C/C(=C/c2c(N)n3nc(-c4ccccc4)sc3nc2=O)C=CC1=O,inactive
11,O=C(c1ccc(C#Cc2ccccc2)o1)N1CCN(c2ccccn2)CC1,inactive
12,CCOc1ccc(NC(=O)c2cc(=O)[nH]c3ccccc23)cc1,inactive
13,COc1cc(C(=O)NCCN2CCN(C(=O)c3cc(OC)c(OC)c(OC)c3)CC2)cc(OC)c1OC,inactive
14,CCOc1ccc(NC(=O)c2cc(Cl)nc3ccccc23)cc1,"inconclusive: 29.1 µM [cytotoxic, single point]"
15,CC(/C=N/NC(=O)CSc1nc2ccccc2n1C)=C\c1ccco1,"inconclusive: 16.4 µM [cytotoxic, single point]"
16,COc1cccc(CNc2nc3cc(-c4csc5ccccc45)sc3c(=O)n2C)c1,inactive
17,COc1ccc(C(c2nnnn2C2CCCCC2)N2CCN(C/C=C/c3ccccc3)CC2)cc1 (stereo not given),"inconclusive: 29.1 µM [cytotoxic, single point]"
18,c1ccc2oc(SCc3cn4ccsc4n3)nc2c1,"inconclusive: 3.16 µM [cytotoxic, full curve]"
19,COCCCNC(=O)c1ccc(Cn2c(=O)c3ccccc3n(Cc3ccc(C)cc3)c2=O)cc1,"inconclusive: 16.4 µM [cytotoxic, partial curve]"
20,CCN(c1cccc(C)c1)S(=O)(=O)c1ccc2c(c1)CCCN2C(C)=O,"inconclusive: 3.26 µM [cytotoxic, partial curve, poor fit]"
21,CCOC(=O)N1CCN(CCC(=O)Nc2cc(OC)ccc2OC)CC1,"inconclusive: 20.6 µM [cytotoxic, partial curve, poor fit]"
22,S=C(NCCC(c1ccccc1)c1ccccc1)Nc1cccc(Cl)c1,"inconclusive: 29.1 µM [cytotoxic, single point]"
23,CC1=Nn2c(nnc2-c2n[nH]c3c2CCC3)SC1,"inconclusive: 20.6 µM [rising, partial curve]"
24,CC1(CN2CCCC2)CCC(NC(=O)C(c2ccccc2)c2ccccc2)C(C)(C)O1 (stereo not given),"inconclusive: 20.6 µM [cytotoxic, single point]"
25,Cc1ccc(-c2csc3nnc(SCC(=O)NCc4ccc5c(c4)OCO5)n23)cc1,"inconclusive: 29.1 µM [cytotoxic, single point]"

# Looked up above:
# Value for Cc1ccc(-c2csc3nnc(SCC(=O)NCc4ccc5c(c4)OCO5)n23)cc1 under Potency: inconclusive: 29.1 µM [cytotoxic, single point]
# Value for CCOc1ccc(NC(=O)CC(NC(C)=O)c2ccccc2)cc1S(=O)(=O)N1CCCC1 (stereo not given) under Potency: inconclusive: 25.9 µM [rising, partial curve, poor fit]
# Value for CCCCc1ccc(NC(=S)NCc2cccnc2)cc1 under Potency: active: 14.6 µM
# Value for CC1(C)OC(=O)C2=C(C[C@@H](C3CCCC3)O[C@H]2CCc2cccc(Cl)c2)O1 under Potency: inconclusive: 0.0116 µM [rising, full curve, poor fit]

# Following part.

row,Structure (SMILES),Potency
1,CCOc1ccc(Oc2ccccc2NC(=O)C2=COCCO2)cc1,"inconclusive: 18.4 µM [cytotoxic, partial curve, poor fit]"
2,Cc1ccc(S(=O)(=O)CCC(=O)NCCN2C(=O)S/C(=C\c3ccccc3)C2=O)cc1,active: 11.6 µM
3,O=C(O)CSCC(=O)NCc1csc2ccc(Cl)cc12,"inconclusive: 18.4 µM [rising, partial curve, poor fit]"
4,O=C(NCc1ccccc1)C(C1CC1)n1c(Cc2cc(F)cc(F)c2)nc2ccccc21 (stereo not given),"inconclusive: 6.51 µM [cytotoxic, partial curve]"
5,Cc1ccc(C)c(N2CCN(C(=S)NC3CCCCC3)CC2)c1,"inconclusive: 5.8 µM [cytotoxic, full curve, poor fit]"
6,COc1cccc(-c2ccc3c(c2)N(Cc2cccc(F)c2)C(=O)C(C)S3)c1 (stereo not given),inactive
7,Cc1cccc(NC(=O)C2CCN(c3ncnc4c3nc3n4CCCCC3)CC2)n1,"inconclusive: 0.517 µM [rising, full curve, poor fit]"
8,O=C(OCc1cccc(Cl)c1)c1cc(S(=O)(=O)N2CCCCC2)ccc1N1CCOCC1,"inconclusive: 5.17 µM [cytotoxic, full curve]"
9,O=C(CCNS(=O)(=O)c1cccc2nsnc12)Nc1ccc(F)cc1,inactive
10,O=S(=O)(Nc1cccc(-c2cn3cccnc3n2)c1)c1ccc(-c2ccccc2)cc1,inactive
11,COc1ccc(NC(=O)Cn2c(-c3ccc(OC)cc3)cn(-c3ccc(C)cc3)c2=O)cc1,"inconclusive: 4.11 µM [cytotoxic, full curve]"
12,O=C(CC1(O)C(=O)N(Cc2ccccc2)c2ccccc21)c1ccncc1 (stereo not given),inactive
13,CCn1cc(C(=O)NCCCO)c(=O)c2cc(F)c(N3CCN(C)CC3)cc21,inactive
14,Cc1ccc(Cl)c(OC(=O)Cn2cnc3c2c(=O)n(C)c(=O)n3C)c1,"inconclusive: 29.1 µM [rising, single point]"
15,CCN(N=O)c1ccc(/C=C/c2ccnc3ccccc23)cc1,"inconclusive: 29.1 µM [cytotoxic, single point]"
16,COc1ccc(CCN2CC(C(=O)Nc3nccs3)CC2=O)cc1OC (stereo not given),"inconclusive: 29.1 µM [rising, single point]"
17,CCCC(=Nc1ccccc1OC)C1=C(O)CC(c2ccccc2)CC1=O (stereo not given),inactive
18,Cc1cc(C)c2c(CN(Cc3ccccc3)Cc3ccccc3)cc(=O)oc2c1,"inconclusive: 23.1 µM [cytotoxic, partial curve, poor fit]"
19,O=C(O)CCc1ccc(-c2ccc(F)cc2)n1CC1CCCO1 (stereo not given),"inconclusive: 17.8 µM [rising, partial curve, poor fit]"
20,Cc1ccc(OCC(=O)N(Cc2nnc(-c3ccccc3Cl)o2)C2CC2)cc1C,inactive
21,CC1CCCC(C)N1CCCNC(=O)CCn1c(=O)c2cccn2c2cccnc21 (stereo not given),"inconclusive: 16.4 µM [rising, single point]"
22,Cc1ccc(S(=O)(=O)CC(=O)NC(C)c2ccccc2)cc1 (stereo not given),"inconclusive: 20.6 µM [rising, partial curve]"
23,Cc1ccc(NC(=O)c2ccc(C#CC3(O)CCCCC3)cc2)cc1C,inactive
24,COc1cccc(NC(=O)Cn2c(=O)n(Cc3nc(-c4ccccc4)no3)c(=O)c3ccccc32)c1,inactive
25,CCCCN1C(=O)CC(Sc2ncccc2C(=O)O)C1=O (stereo not given),"inconclusive: 23.1 µM [rising, single point]"

row,Structure (SMILES),Potency
1,COc1cc(-c2nc3cnccn3c2Nc2ccccc2)ccc1O,inactive
2,O=C(CCCN1C(=O)C(c2ccccc2)Oc2cccnc21)Nc1ccccc1Br (stereo not given),inactive
3,O=C(NCCC1=CCCCC1)c1ccc2c(c1)ncn2-c1cccc(Cl)c1,inactive
4,O=C(N/N=C/C(Cl)=C\c1ccccc1)c1ccco1,inactive
5,COc1cc(OC)cc(C(=O)NCC(C)NC(=O)c2cc(OC)cc(OC)c2)c1 (stereo not given),"inconclusive: 18.4 µM [cytotoxic, single point]"
6,COc1ccc(-n2c(COc3cccc4ccccc34)nnc2SCC#N)cc1,inactive
7,COc1ccccc1-c1c(C)nn2c(N)c(-c3ccccc3)cnc12,"inconclusive: 18.4 µM [cytotoxic, partial curve, poor fit]"
8,Cc1ccc(S(=O)(=O)Nc2ccc3cn[nH]c3c2)cc1C,inactive
9,COc1ccc(S(=O)(=O)NCCc2sc(-c3ccccc3)nc2C)cc1OC,"inconclusive: 7.31 µM [cytotoxic, partial curve]"
10,Cn1cc(-c2coc3c(C(=O)NCc4cccnc4)cccc23)cn1,inactive
11,COc1ccc(-c2ccnc3c2c(=O)n(C)c(=O)n3C)cc1OC,inactive
12,COC(=O)CSc1ccccc1C(=O)OC,inactive
13,O=C(Cn1nnc(-c2ccccc2)n1)N=Nc1c(O)[nH]c2ccccc12,inactive
14,CS(=O)(=O)c1nc(-c2ccccc2)cc(-c2ccccc2)c1C#N,inactive
15,CCN(C(=O)C(NS(=O)(=O)c1cccc2nsnc12)c1ccccc1)c1ccccc1 (stereo not given),inactive
16,N#Cc1ccc(/C=C2\C=Cc3ccccc32)cc1,"inconclusive: 29.1 µM [cytotoxic, single point]"
17,Fc1ccc(NC(=S)N2CCOCC2)c(F)c1,inactive
18,COc1cccc(NC(=O)CN(C)C(=O)c2ccc(COc3ccccc3)cc2)c1,"inconclusive: 16.4 µM [cytotoxic, partial curve]"
19,Cc1ccc(C(=O)Nc2ccc(NC(=O)c3ccco3)c(C)c2)cc1,"inconclusive: 2.59 µM [cytotoxic, partial curve, poor fit]"
20,O=C1C=CC(=O)N1N(c1ccccc1)c1ccccc1,inactive
21,Cc1cc(NC(=O)CN2C(=O)NC(C)(c3ccc(Cl)cc3Cl)C2=O)no1 (stereo not given),inactive
22,C[C@H](NC(=O)c1[nH]cnc1C(=O)Nc1ccc(CNC(=O)OC(C)(C)C)cc1)C(=O)OC(C)(C)C,inactive
23,NS(=O)(=O)c1ccc(CCNC(=O)c2ccc([N+](=O)[O-])s2)cc1,"inconclusive: 18.4 µM [cytotoxic, single point]"
24,COc1ccc(OC)c(/C=N/NC(=O)c2cc3c(OC)cccc3[nH]2)c1,inactive
25,Cc1cccc(NS(=O)(=O)c2cccc(C(=O)NCC(c3ccco3)N(C)C)c2)c1 (stereo not given),"inconclusive: 20.6 µM [cytotoxic, single point]"
